Source: patent publication US20200040070A1 (CHEMOMAB, published 2020)
No constants are given. Whether binding was seen depends on the method and setting. Some entries that bind do so weakly or less than the wild type.

Protein sequences, listed by entry. Tags and fused reporters are not part of them. Residues count along the entry.
UniProt P51671, residues 24-97: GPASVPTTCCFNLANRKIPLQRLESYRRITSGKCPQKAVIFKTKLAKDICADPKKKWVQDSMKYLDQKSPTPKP
UniProt P80098, residues 24-99: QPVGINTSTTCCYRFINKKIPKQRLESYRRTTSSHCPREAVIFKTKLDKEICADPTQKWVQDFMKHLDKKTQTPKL

Assays:
Eotaxin 1 (CCL11) [1] = biological target: T1, Eotaxin 1 (CCL11) (human, UniProt P51671 24-97); assay: SPR (Biacore), referred back to
T1 construct: also called human CCL11

MCP3 (CCL7) [2] = biological target: MCP3 (CCL7) (UniProt P80098); assay: SPR (Biacore), referred back to
Eotaxin 1 (CCL11) [3] = biological target: T1, Eotaxin 1 (CCL11); assay: SPR (Biacore T200)
MCP3 (CCL7) [4] = biological target: MCP3 (CCL7) (UniProt P80098); assay: SPR (Biacore T200)

binding (Eotaxin 1 (CCL11) [1]): binds
binding (MCP3 (CCL7) [2]): binds
binding (Eotaxin 1 (CCL11) [3]): binds
binding (MCP3 (CCL7) [4]): binds
B1: fully humanized anti CCL24 antibody HCM101 (antibody, V domains shown)
VH: QIQLVQSGPELKKPGASVKVSCRASGYPFTNSGMNWVKQAPGKGLKWMGWINTYNGEPTYTDDFKGRFAFSLETSASTAYLQINNLRNEDTATYFCASHSYGSSYAMDNWGQGTSVTVSS
VL: DIVLTQSPDSLAVSLGERATINCKASQSVDYDGDSYMNWYQQKPGQPPKLLIYVASNLKSGIPARFSGSGSGTDFTLTISSLQPEDFATYYCQQSNEEPWTFGGGTKVEIK
notes: also called humanized version of CM101
